Consider five substances from article PMC6307885.

By UniProt entry, the sequences of proteins in these tests, tags left out.
UniProt Q9SAD4: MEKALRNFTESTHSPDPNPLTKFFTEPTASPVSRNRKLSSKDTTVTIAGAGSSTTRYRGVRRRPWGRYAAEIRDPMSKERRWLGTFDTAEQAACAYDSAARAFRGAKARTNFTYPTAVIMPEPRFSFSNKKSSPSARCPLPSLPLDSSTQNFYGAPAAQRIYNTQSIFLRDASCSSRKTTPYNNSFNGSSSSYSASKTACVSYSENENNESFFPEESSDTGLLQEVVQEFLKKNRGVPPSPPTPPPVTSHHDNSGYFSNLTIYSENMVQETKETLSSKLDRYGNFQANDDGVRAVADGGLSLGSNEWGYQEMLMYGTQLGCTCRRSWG
UniProt Q9FYK5: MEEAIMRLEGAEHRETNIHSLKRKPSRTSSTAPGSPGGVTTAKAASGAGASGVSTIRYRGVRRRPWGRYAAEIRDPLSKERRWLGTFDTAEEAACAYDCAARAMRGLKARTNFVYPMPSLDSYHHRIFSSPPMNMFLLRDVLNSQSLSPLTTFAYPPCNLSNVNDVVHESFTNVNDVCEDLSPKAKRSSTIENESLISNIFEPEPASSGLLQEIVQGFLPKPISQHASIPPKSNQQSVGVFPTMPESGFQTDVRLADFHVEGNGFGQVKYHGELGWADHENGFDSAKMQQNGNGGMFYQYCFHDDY

Test [1] concerns the target BD-REV (full-length REV fused to the binding domain of GAL4) (Arabidopsis thaliana) (UniProt Q9SE43). Description: two-hybrid; GAL4 AD and BD fusions in yeast; growth on SD-Leu-Trp-His-Ade plates; 100 mM 3-AT in the selection medium.
Test [2] shares this target. Description: yeast three-hybrid; yeast AH109; AD and BD fusions with conditional expression of a third (bridge) protein; growth and relative β-galactosidase activity before and after induction; 30°C.
The target of test [3] is T1, REV protein, purified, used in EMSA (Arabidopsis thaliana) (UniProt Q9SE43).
T1 sequence: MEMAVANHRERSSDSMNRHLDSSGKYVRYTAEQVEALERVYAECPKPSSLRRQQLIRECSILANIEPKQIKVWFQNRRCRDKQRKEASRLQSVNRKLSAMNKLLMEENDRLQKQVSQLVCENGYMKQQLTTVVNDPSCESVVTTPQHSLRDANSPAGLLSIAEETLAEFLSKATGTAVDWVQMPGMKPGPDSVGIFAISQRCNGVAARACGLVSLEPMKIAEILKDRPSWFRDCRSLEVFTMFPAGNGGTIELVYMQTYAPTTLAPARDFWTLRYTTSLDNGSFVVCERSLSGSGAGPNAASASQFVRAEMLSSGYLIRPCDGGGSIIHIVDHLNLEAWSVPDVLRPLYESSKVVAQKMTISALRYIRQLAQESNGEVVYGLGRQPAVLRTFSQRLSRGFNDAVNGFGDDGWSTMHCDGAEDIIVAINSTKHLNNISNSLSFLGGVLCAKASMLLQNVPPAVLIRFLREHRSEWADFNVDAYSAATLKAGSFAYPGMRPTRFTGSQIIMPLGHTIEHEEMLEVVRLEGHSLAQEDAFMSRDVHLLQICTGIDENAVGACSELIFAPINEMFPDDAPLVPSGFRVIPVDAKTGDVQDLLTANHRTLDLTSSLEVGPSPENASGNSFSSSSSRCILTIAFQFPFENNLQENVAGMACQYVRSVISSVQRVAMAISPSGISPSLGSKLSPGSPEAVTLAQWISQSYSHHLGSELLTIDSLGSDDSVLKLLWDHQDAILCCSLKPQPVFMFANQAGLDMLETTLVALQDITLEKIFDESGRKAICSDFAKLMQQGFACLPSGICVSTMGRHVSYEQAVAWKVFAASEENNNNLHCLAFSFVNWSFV
Description: native gel or EMSA; supershift with biotin-labeled fragment 1 of the STM promoter; 2 µg DRN and ZPR3, 1 µg REV; 25°C, 20 min; 10% native polyacrylamide gel; both purified.

These are yes or no findings as the source states them, for the method shown. Some results given as binding are weak or reduced against the parent protein; the word gives no strength.

In the case of “AD-DRN (full-length DRN fused to the activation domain of GAL4) (from UniProt Q9SAD4 1-328)”, the binding result in test [1] and in test [2] was “binds” each time.

Regarding “AD-DRNL (full-length DRNL fused to the activation domain of GAL4) (from UniProt Q9FYK5 1-306)”, the binding result in test [1] and in test [2] was “binds” throughout.

Consider “DRN expressed as the third protein in the yeast three-hybrid assay (pB-REV-DRN) (from UniProt Q9SAD4 1-328)”, for which the binding result in test [2] is “binds”.

As to “DRN protein, purified, used in EMSA (from UniProt Q9SAD4 1-328)”, the binding result in test [3] is given as “binds”.

Take “DRNL expressed as the third protein in the yeast three-hybrid assay (pB-REV-DRNL) (from UniProt Q9FYK5 1-306)”: in test [2], the binding result is listed as “binds”.
